Measurements reported in PubChem BioAssay AID504786 (Drosophila RNAi Screening Center, 2011)

- Screen: 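Knock-downs reducing HIF reporter induction by the iron chelator DFO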 (primary screen)
- Cell system: Drosophila S2 cells with a stable HIF luciferase reporter
- Reagent: long dsRNA against Drosophila genes, about 0.2 µg dsRNA per well of a 384-well plate
- Time to read-out: three days of knock-down, then 20 h of DFO before reading
- Treatment: desferrioxamine (DFO) at 100 µM, an iron chelator that mimics hypoxia, for 20 h
- Measured: 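HIF reporter luminescence in cells given 100 µM DFO for 20 h, using the mouse ldh-a hypoxia-response element, scored as per-plate z-scores; higher means greater loss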
- Reading the numbers: z-score: higher = stronger loss of HIF reporter signal
In all, the deposit lists about 21,000 reagents; this is an unselected part of those that have a named target and a result. 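Primary screen; positive scores mean lost reporter signal, so the sign may be inverted from the usual convention.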

Against CecB [DRSC16605], the entry reads z-score, replicate 1 = -0.4; z-score, replicate 2 = 0.4.
Silencing of CG17801 [DRSC15273] gave: z-score, replicate 1 = -0.3; z-score, replicate 2 = -0.1.
With knock-down of CG33299 [DRSC01085], the screen gave z-score, replicate 1 = -0.5; z-score, replicate 2 = -0.1.
For RnrS [DRSC07533], the values are z-score, replicate 1 = 2.4; z-score, replicate 2 = 1.6.
For CG12541 [DRSC17483] the deposit lists z-score, replicate 1 = 0.2; z-score, replicate 2 = -0.1.
Against CG12541 [DRSC17839] the deposit lists z-score, replicate 1 = -0.3; z-score, replicate 2 = -0.4.
Against Gpo2 [DRSC06822], the values are z-score, replicate 1 = -0.2; z-score, replicate 2 = -0.5.
For CNPYb [DRSC09845] the deposit lists z-score, replicate 1 = -0.2; z-score, replicate 2 = -0.3.
Silencing of CG3448 [DRSC10368] gave: z-score, replicate 1 = -0.3; z-score, replicate 2 = -0.8.
Knock-down of E23 [DRSC00425] gave: z-score, replicate 1 = 2.9; z-score, replicate 2 = 4.
E23 [DRSC00593] scored z-score, replicate 1 = -0.1; z-score, replicate 2 = 0.
After knock-down of CG12204 [DRSC19442], the record shows z-score, replicate 1 = 0; z-score, replicate 2 = -0.2.

Taken from above.
CecB [DRSC16605], z-score, replicate 2: 0.4
Result of Gpo2 [DRSC06822] under “z-score, replicate 1”: -0.2
CG12204 [DRSC19442], z-score, replicate 2 = -0.2
Result for CG12541 [DRSC17839] in “z-score, replicate 2”: -0.4

Additional entries follow:
Depletion of Lmx1a [DRSC09726] resulted in: z-score, replicate 1 = -0.1; z-score, replicate 2 = 0.
Silencing of Lmx1a [DRSC10275] gave: z-score, replicate 1 = 0.5; z-score, replicate 2 = -0.9.
After knock-down of CG17219 [DRSC00486], the screen gave z-score, replicate 1 = -0.2; z-score, replicate 2 = -0.7.
CG7382 [DRSC03052] scored z-score, replicate 1 = -0.2; z-score, replicate 2 = -0.2.
CG9519 [DRSC20195] scored z-score, replicate 1 = -0.4; z-score, replicate 2 = -0.2.
Against CG32280 [DRSC08024] the deposit lists z-score, replicate 1 = -0.1; z-score, replicate 2 = 0.2.
With knock-down of CG31462 (retired record) [DRSC14359] the results were z-score, replicate 1 = -0.3; z-score, replicate 2 = -0.7.
Depletion of Cyp6a2 [DRSC05014] came out at: z-score, replicate 1 = -0.2; z-score, replicate 2 = 0.4.
For CG32720 [DRSC17529], the entry reads z-score, replicate 1 = -0.4; z-score, replicate 2 = -0.3.
Against Galk [DRSC10500], the entry reads z-score, replicate 1 = -0.3; z-score, replicate 2 = -0.6.
With knock-down of Rpn6 [DRSC07541], the record shows z-score, replicate 1 = 4; z-score, replicate 2 = 5.
Against MICU3 [DRSC13381], the values are z-score, replicate 1 = -0.3; z-score, replicate 2 = -0.3.
With knock-down of MICU3 [DRSC15613], the screen gave z-score, replicate 1 = -0.1; z-score, replicate 2 = -0.4.
CG17049 (retired record) [DRSC06650] gave z-score, replicate 1 = -0.3; z-score, replicate 2 = -0.5.
Against obst-I [DRSC08339], the values are z-score, replicate 1 = -0.3; z-score, replicate 2 = -0.3.
